Laboratory results reported in PMC9274485.
These are yes or no findings as the source states them, for the method shown. In cells and extracts the contact can be indirect. Some binding calls cover weakened binding; strength is not graded here. For part of these data: Sequences can lack the tags named with a protein. Blank lines part the entries; values can stand above or below the molecule they belong to.

Protein sequences, listed by entry. Tags and fused reporters are not part of them.
UniProt Q06330: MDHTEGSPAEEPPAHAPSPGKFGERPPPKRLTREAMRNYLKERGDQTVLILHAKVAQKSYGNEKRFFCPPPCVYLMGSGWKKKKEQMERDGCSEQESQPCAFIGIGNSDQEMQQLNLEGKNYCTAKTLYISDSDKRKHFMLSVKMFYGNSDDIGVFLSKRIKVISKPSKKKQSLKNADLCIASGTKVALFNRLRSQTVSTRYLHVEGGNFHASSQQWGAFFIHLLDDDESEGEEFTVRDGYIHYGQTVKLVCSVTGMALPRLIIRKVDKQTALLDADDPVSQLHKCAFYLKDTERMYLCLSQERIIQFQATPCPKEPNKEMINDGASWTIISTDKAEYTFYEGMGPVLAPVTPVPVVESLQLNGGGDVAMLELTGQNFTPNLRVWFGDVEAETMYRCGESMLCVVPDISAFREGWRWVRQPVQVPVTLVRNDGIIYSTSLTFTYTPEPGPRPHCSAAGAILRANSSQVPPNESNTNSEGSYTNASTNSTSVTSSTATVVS

How the values were obtained:
FLAG-tagged BEND5 = target: T1, FLAG-tagged BEND5 (UniProt Q7L4P6); assay: co-IP; HEK293T co-transfected with MYC-RBPJ and FLAG-BEND5 or FLAG-BEND5 △BEN; lysates immunoprecipitated with anti-FLAG agarose overnight at 4 °C, immunoblot with anti-MYC
T1 sequence: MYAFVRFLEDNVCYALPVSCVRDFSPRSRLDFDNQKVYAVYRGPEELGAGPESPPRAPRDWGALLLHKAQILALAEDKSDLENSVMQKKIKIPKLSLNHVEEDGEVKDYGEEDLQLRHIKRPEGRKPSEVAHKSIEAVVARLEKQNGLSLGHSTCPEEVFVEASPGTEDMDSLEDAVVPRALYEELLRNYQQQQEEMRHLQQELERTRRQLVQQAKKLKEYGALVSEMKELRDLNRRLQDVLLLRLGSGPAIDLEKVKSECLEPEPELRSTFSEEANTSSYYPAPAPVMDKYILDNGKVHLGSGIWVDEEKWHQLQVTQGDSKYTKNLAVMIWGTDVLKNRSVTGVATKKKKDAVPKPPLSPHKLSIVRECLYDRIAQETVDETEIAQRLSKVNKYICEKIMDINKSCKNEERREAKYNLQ

[1] = target: T2, BEN domain containing 5 (BEND5), endogenous (human (endogenous in MDA-MB-231 and ZR75-1)) (UniProt Q7L4P6); assay: co-IP; endogenous proteins; MDA-MB-231 or ZR75-1 protein extract immunoprecipitated with anti-BEND5 or normal IgG, immunoblot with the indicated antibodies
T2 sequence: T1 sequence

MYC-tagged RBPJ = MYC-tagged RBPJ (UniProt Q06330); assay: co-IP; HEK293T co-transfected with FLAG-BEND5 and MYC-RBPJ or its deletion mutants; lysates immunoprecipitated with anti-MYC agarose overnight at 4 °C, immunoblot with anti-FLAG

binding (FLAG-tagged BEND5): binds
Molecule: MYC-tagged RBPJ (from UniProt Q06330 1-500)

binding [1]: binds
Molecule: recombination signal binding protein for immunoglobulin kappa J region (RBPJ), endogenous (from UniProt Q06330 1-500)

binding (MYC-tagged RBPJ): binds
B1: FLAG-tagged BEND5 (protein, UniProt Q7L4P6 1-421)
chain: T1 sequence
